Assay results taken from PubChem BioAssay AID504444 (National Center for Advancing Translational Sciences (NCATS), 2011).
Hit rate of the full screen: of about 360,000 compounds, about 7,500 (2.1%) were called active. Inconclusive results, whose numbers are uncertain, are shown with a selection of clear calls. Calls follow the shape of the dose curve; as a rule, active = well fitted inhibition curve with a large enough effect; inconclusive = small, poorly fitted or top-dose-only effect, or effect the other way; inactive = flat fitted curve, though single readings scatter. A potency beside an inconclusive call is a rough fit, not a confirmed value.

Experiment: Nrf2 qHTS screen for inhibitors; also: nearly all actives have a fitted effect of over 60% in size
Conditions: A549 ARE-Fluc reporter, luciferase luminescence, 18-24 h; activity change, negative = inhibition: at 46 µM (top of the series)
Method in brief: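 In this cell-based qHTS, ARE-driven firefly luciferase in A549 cells reports Nrf2 activity; the luminescent signal after BugLite lysis is the measured value, with a prior CellTiter-Fluor read for cell health.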
% is scaled to controls: 0 for no effect and ±100 for the full control effect; potency is read from the fitted curve at half-maximal effect.

Compound	Potency	activity change, negative = inhibition
COc1ccccc1-c1noc(-c2ccc(NC(C)C)c([N+](=O)[O-])c2)n1	inconclusive: 29.1 µM [activator, single point]	
Cc1ccc(OCCNS(=O)(=O)c2ccc(N3CCCC3=O)cc2)cc1	inconclusive: 20.6 µM [falling, partial curve, poor fit]	
Nc1ccc(/C=C/C(=O)c2cccs2)cc1	inconclusive: 6.51 µM [activator, partial curve]	
O=S(=O)(c1ccc2c(c1)OCCO2)N1CCN(c2ncnc3sccc23)CC1	active: 2.31 µM	
Cc1ccc(OCC(=O)N(Cc2ccc(N(C)C)cc2)C2CCS(=O)(=O)C2)cc1C (stereo not drawn)	inconclusive: 32.6 µM [activator, single point]	
COc1cccc(OC)c1NC(=O)Cc1nn(C)c(=O)c2ccccc12	inconclusive: 23.1 µM [falling, partial curve, poor fit]	
C=Cc1cc(F)c(S(=O)(=O)N2CCN(S(=O)(=O)c3ccc4c(c3)OCCO4)CC2)cc1F		inactive: -19.7%
Cn1cc(CNC(=O)C23CC4CC(CC(C4)C2)C3)cn1	inconclusive: 5.8 µM [falling, partial curve, poor fit]	
CC(=O)c1ccc2c3c(cccc13)C(=O)N(CCc1ccccc1)C2=O	inconclusive: 4.11 µM [activator, full curve, poor fit]	
CCCCc1cc(=O)oc2cc(OCC(=O)N(CC)CC)ccc12		inactive: 9.14%
Cc1cccc(N=[N+]([O-])c2cccc(C)n2)n1	inconclusive: 16.4 µM [activator, partial curve]	
O=S1(=O)C=C(Sc2nnc(-c3ccccc3)o2)c2ccccc21	inconclusive: 29.1 µM [falling, partial curve, poor fit]	
Cc1cccc2nc(CSc3nnc(N)s3)cn12	inconclusive: 25.9 µM [activator, partial curve]	
O=S(=O)(Nc1cccc(-c2ccc(N3CCCCCC3)nn2)c1)c1ccc(C(F)(F)F)cc1	inconclusive: 29.1 µM [activator, single point]	
COC(=O)CSc1nnc(-c2ccc(S(=O)(=O)N3CCC(C)CC3)cc2)o1	inconclusive: 0.164 µM [falling, full curve, poor fit]	
CCc1ccc(NC(=O)Cn2cc(S(=O)(=O)N3CCCC3)c(S(=O)(=O)N3CCCC3)c2)cc1	inconclusive: 11.6 µM [activator, partial curve]	
CCc1ccc(C2c3[nH]c4ccccc4c3CCN2C(=O)CNC(N)=O)cc1 (stereo not drawn)		inactive: -18.2%
Cc1cccc(/C=N/NC(=O)c2cc(-c3cccnc3)nc3c2c(C)nn3-c2ccccc2)c1	inconclusive: 29.1 µM [falling, single point]	
CC1(C)Cc2c(ccc3ccccc23)C2=C(C(=O)N3CCCC3)C(=O)C(=O)N21	inconclusive: 5.8 µM [falling, partial curve, poor fit]	
COc1cccc(C2CC(c3ccccc3Cl)n3nc(N)nc3N2)c1 (stereo not drawn)	inconclusive: 36.6 µM [falling, partial curve, poor fit]	
CC(=O)Nc1ccc(NC(=O)CN(c2cc(Cl)ccc2Cl)S(C)(=O)=O)cc1		inactive: -15.1%

Compound	Potency	activity change, negative = inhibition
CN1CCN(CCC2Oc3cc([N+](=O)[O-])ccc3NC2=O)CC1 (stereo not drawn)	inconclusive: 29.1 µM [falling, single point]	
Cc1[nH]c2ccccc2c1SCC(=O)NC1CCCCC1	inconclusive: 8.2 µM [falling, partial curve]	
CCOC(=O)c1sc2nc(C)nc(NCc3ccccc3)c2c1C	inconclusive: 8.2 µM [falling, partial curve, poor fit]	
CC(C)NC(=O)CCN1C(=O)c2ccccc2Sc2ncccc21	inconclusive: 16.4 µM [activator, partial curve]	
O=C(c1ccco1)N1N=C(c2ccc(Br)cc2)CC1(O)C(F)(F)F (stereo not drawn)	inconclusive: 11.6 µM [falling, partial curve]	
COc1cc(NC(=O)CCCn2c(=S)[nH]c3ccccc3c2=O)cc(OC)c1OC	inconclusive: 20.6 µM [falling, single point]	
Cc1nn(C)c(C)c1CNC(=O)Nc1cccc(Cl)c1	inconclusive: 14.6 µM [activator, partial curve]	
Cc1cc2ccccn2c1C(=O)Nc1ccccc1	inconclusive: 14.6 µM [activator, partial curve, poor fit]	
N#Cc1cc([N+](=O)[O-])ccc1Oc1cccc(/C=N/NC(=O)c2cccc(Cl)c2)c1	inconclusive: 29.1 µM [falling, single point]	
COc1ccc2oc(=O)c(-c3nc(-c4cccs4)no3)cc2c1	inconclusive: 29.1 µM [activator, single point]	
S=C(NCc1ccco1)N1CCN(c2nc(-c3ccccc3)cs2)CC1	inconclusive: 13 µM [falling, partial curve, poor fit]	
Cc1ccc(NC(=O)Cn2nnc(C(=O)NCc3ccc4c(c3)OCO4)c2N)cc1Cl	inconclusive: 11.6 µM [activator, partial curve]	
O=C(NNC(=O)C1[C@H]2CCCC[C@@H]12)c1ccc(=O)oc1 (stereo partly drawn)	inconclusive: 18.4 µM [activator, single point]	
COc1ccccc1N(C)S(=O)(=O)c1ccc(C(=O)NCCc2ccc(F)cc2)cc1	inconclusive: 25.9 µM [falling, partial curve, poor fit]	
CCCC(O)(c1ccc(Br)cc1)C(CN1CCOCC1)c1ccc(Cl)cc1 (stereo not drawn)	inconclusive: 29.1 µM [falling, single point]	
Cc1ccc(S(=O)(=O)N2CCN(C(=O)CSCc3ccc(C(C)C)cc3)CC2)cc1	inconclusive: 29.1 µM [falling, single point]	
Cc1ccc(CN2CCSc3ccc(C(=O)NCC4CCCO4)cc32)cc1 (stereo not drawn)	inconclusive: 29.1 µM [falling, single point]	
Cc1ccnc(NC(=O)CNC(=O)c2sc3ccccc3c2Cl)c1	inconclusive: 2.06 µM [activator, full curve]	
CCn1c(=O)cc(OCC(=O)N2CCN(c3ccc(F)cc3)CC2)c2ccccc21	inconclusive: 29.1 µM [falling, single point]	
O=C(OCC#CCSc1nnc(-c2ccc(F)cc2)o1)c1ccc(F)cc1	inconclusive: 29.1 µM [activator, partial curve, poor fit]	
Cc1cccc(NS(=O)(=O)c2ccc3c(c2)CCN3C(=O)CCC(=O)O)c1		inactive: 1.26%

2 entries from above in a different format.

| Compound | Potency | activity change, negative = inhibition |
| --- | --- | --- |
| CCc1ccc(C2c3[nH]c4ccccc4c3CCN2C(=O)CNC(N)=O)cc1 (stereo not drawn) |  | inactive: -18.2% |
| Cc1cccc(/C=N/NC(=O)c2cc(-c3cccnc3)nc3c2c(C)nn3-c2ccccc2)c1 | inconclusive: 29.1 µM [falling, single point] |  |

(continued)

Compound	Potency	activity change, negative = inhibition
O=C(CSCc1cnn(-c2ccccc2)c1-n1cccc1)NCc1cccnc1	inconclusive: 18.4 µM [falling, single point]	
Cc1ccc(-c2csc3ncnc(N4CCc5ccccc5C4)c23)cc1	inconclusive: 29.1 µM [falling, single point]	
COC(=O)[C@H](Cc1ccccc1)NCCCn1cnc(C(=O)Nc2ccc(C)c(C)c2)n1	inconclusive: 6.51 µM [activator, single point]	
O=C(N/N=C/c1c[nH]c2ccccc12)c1ccccc1	inconclusive: 6.51 µM [activator, partial curve, poor fit]	
CN1CCC(N(C)C(=S)NCCc2ccccc2)CC1	inconclusive: 29.1 µM [activator, single point]	
COCCNC(=S)N1CCN(c2cccc(C)c2C)CC1	inconclusive: 16.4 µM [falling, single point]	
CC(CCN1CCC(CN2C(=S)NCC2Cc2ccccc2)CC1)c1ccccc1 (stereo not drawn)		inactive: 7.14%
Oc1ccc(N=Cc2ccc(OCc3ccccc3)cc2)cc1	inconclusive: 29.1 µM [falling, single point]	
CC(C)(C)C(=O)Nc1nc(-c2ccc3c(c2)OCO3)cs1	inconclusive: 1.64 µM [activator, full curve]	
CC(=O)Nc1ccc(NC(=O)C(=O)NCC(c2ccco2)N2CCc3ccccc3C2)cc1 (stereo not drawn)	inconclusive: 29.1 µM [falling, single point]	
O=C(Cn1cnc([N+](=O)[O-])n1)N/N=C/c1ccccc1O	inconclusive: 29.1 µM [falling, single point]	
CCOC(=O)Nc1sc(C(=O)N(CC)CC)c(C)c1C(=O)OCC		inactive: -15.2%
NS(=O)(=O)c1ccc(NC(=O)COC(=O)COc2ccc3ccccc3c2)cc1	inconclusive: 20.6 µM [falling, partial curve]	
COc1ccc(CCC(=O)N(C)CC(=O)Nc2ccc(Cl)c(C(F)(F)F)c2)cc1	inconclusive: 18.4 µM [falling, partial curve]	
COc1ccc(NC(=O)c2ccc(Cl)c(S(=O)(=O)N3CCc4ccccc4C3)c2)cn1	inconclusive: 18.4 µM [falling, single point]	
Cn1c(=O)n(CCCc2ccccc2)c(=O)c2c1nc1n2CCN1c1ccc(F)cc1		inactive: -2.37%
Cn1c(NC(=O)c2ccccc2NC(=O)C(C)(C)C)nc2ccccc21	active: 16.4 µM	
Cc1cc(C(=O)N2CCc3ccccc3C2)n[nH]1	inconclusive: 16.4 µM [activator, partial curve, poor fit]	
O=C(c1cc(-c2ccc(O)cc2)on1)N1CCN(c2ccccc2)CC1	inconclusive: 20.6 µM [falling, single point]	
COc1ccc(S(=O)(=O)N2CCOCC2)cc1NS(=O)(=O)c1ccc(F)c(F)c1		inactive: 5.04%
Nc1ccc(S(=O)(=O)N2CCc3ccccc32)cc1	inconclusive: 10.3 µM [falling, partial curve, poor fit]	
